In paper PMC6280245:
No constants are given. Whether binding was seen depends on the method and setting. Binding seen in cells or lysates may run through a third protein. A yes stands for co-enrichment or nearness to the bait. Other partners may have been found.

T1: mouse Nucleoredoxin Cys208Ser (mouse) (UniProt P97346)
T1 sequence: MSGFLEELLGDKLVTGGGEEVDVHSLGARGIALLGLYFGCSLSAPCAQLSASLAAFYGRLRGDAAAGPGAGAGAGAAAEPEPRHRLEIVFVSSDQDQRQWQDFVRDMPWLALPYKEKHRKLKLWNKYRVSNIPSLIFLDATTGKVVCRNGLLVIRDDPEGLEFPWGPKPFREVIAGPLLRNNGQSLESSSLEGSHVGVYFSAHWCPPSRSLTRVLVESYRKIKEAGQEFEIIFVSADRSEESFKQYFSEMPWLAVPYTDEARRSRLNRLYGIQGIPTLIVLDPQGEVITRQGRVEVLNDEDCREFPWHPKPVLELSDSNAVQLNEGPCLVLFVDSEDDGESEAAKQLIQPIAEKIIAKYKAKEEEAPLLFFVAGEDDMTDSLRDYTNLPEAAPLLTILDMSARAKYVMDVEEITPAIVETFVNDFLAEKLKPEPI


Molecular target: T1, mouse Nucleoredoxin Cys208Ser (mouse)
Test: affinity purification with mass spectrometry; intermediate trapping: mNrx Cys208Ser coupled to CNBr-activated sepharose and reduced with 10 mM DTT; mouse brain extract (Black 6 C57J mice, NP40 lysis buffer) 2 h at 4°C; washed with 100 mM Tris, 300 mM NaCl, pH 8 and TE buffer; trapped proteins (mixed disulfide) eluted with 10 mM DTT and 10 mM TCEP; only the target purified

Row | Binder | binding
1 | Aspartate aminotransferase, mitochondrial (mouse) (protein, UniProt P05202 30-430) SSWWTHVEMGPPDPILGVTEAFKRDTNSKKMNLGVGAYRDDNGKPYVLPSVRKAEAQIAAKNLDKEYLPIGGLAEFCKASAELALGENNEVLKSGRFVTVQTISGTGALRVGASFLQRFFKFSRDVFLPKPSWGNHTPIFRDAGMQLQGYRYYDPKTCGFDFSGALEDISKIPEQSVLLLHACAHNPTGVDPRPEQWKEIASVVKKKNLFAFFDMAYQGFASGDGDKDAWAVRHFIEQGINVCLCQSYAKNMGLYGERVGAFTVVCKDAEEAKRVESQLKILIRPLYSNPPLNGARIAATILTSPDLRKQWLQEVKGMADRIISMRTQLVSNLKKEGSSHNWQHITDQIGMFCFTGLKPEQVERLTKEFSVYMTKDGRISVAGVTSGNVGYLAHAIHQVTK | binds
2 | Isoleucine-tRNA ligase, mitochondrial (mouse) (protein, UniProt Q8BIJ6 49-1012) DSPQSSSKGGRYRDTVLLPQTSFPMKLLGRQQSDMELEIQQKCGFSELYSWQRERKVKTEFCLHDGPPYANGDPHVGHALNKILKDIANRFHMMRGSKVHFVPGWDCHGLPIETKVLSELGVDAQSLSAMEIREKARSFAQAAIEKQKSAFVRWGVMADWNNCYYTFDPKYEAKQLRVFYQMYEKGLVYRSYKPVYWSPSSRTALAEAELEYNPEHVSRSIYVRFPLLRPPPKLESLTDASSPVSVLVWTTQPWTIPANQAICYMPEAKYAVVKCSASGHLYILAEDKIAPVASALETTFDVVAAFSGVDLEGGTCSHPLTPDKVSPLLPATHVTMAKGTGLVHTAPAHGMEDYSVASQHSLPMDCLVDEGGMFTDAAGPELQNKAVLKEGTDVVIKMLQATKNVLKEENIVHSYPCDWRTKTPVLIRASKQWFVNITDIKAAAKESLKTVKFIPGAALNSMTDMLDRRPYWCISRQRVWGVPIPVFHHKTKDEYLINSQTTEHIIKLVEQHGSDVWWTLPAEQLLPAEVLAQAGGPGALEYAPGQDILDIWFDSGTSWSCVLQDTQQRADLYLEGKDQLGGWFQSSLLTSVATRSKAPFRTVMVHGFTLGEKGEKMSKSLGNVINPDTIISGGKDHSKEPPYGADILRWWIAESNVFTEVTIGPSVLSAARDDISKLRNTLRFLLGNLTGFNPETDSVPVKNMYVIDQYMLHLIQDFATKITDSYKQYDFGKVVRLLKAFYTRELSSFYFSIVKDRLYCENEKDPKRRSCQTALAEILDVLVRAFAPILPHLAEEVFQHIPYVTEPKSVFRTGWINTSSIWKKPGLEEAVESACAMRDSFLGSIPGKNAAEYEVIIVIEPGLLFEIMEMLQAEETSSTSQLNELMMASQTTLLAQEPRERTAGDIELTGTFVINLEGGDIREESSYKVIVVPTAREKCPRCWKHTSETADALCPRCAEVIGAK | binds
3 | 3-Hydroxyacyl-CoA dehydrogenase type-2 (mouse) (protein, UniProt O08756 1-261) MAAAVRSVKGLVAVVTGGASGPWLATAKRLVGQGATAVLLDVPDSEGESQAKKLGESCIFAPANVTSEKEIQAALTLAKEKFGRIDVAVNCAGIAVAIKTYHQKKNKIHTLEDFQRVINVNLIGTFNVIRLVAGEMGQNEPDQGGQRGVIINTASVAAFEGQVGQAAYSASKGGIDGMTLPIARDLAPTGIRVVTIAPGLFATPLLTTLPEKVRNFLASQVPFPSRLGDPAEYAHLVQTIIENPFLNGEVIRLDGAIRMQP | binds
4 | Serine/threonine-protein phosphatase 5 (mouse) (protein, UniProt Q60676 1-499) MAMAEGERTECAETPRDEPPADGTLKRAEELKTQANDYFKAKDYENAIKFYSQAIELNPGNAIYYGNRSLAYLRTECYGYALGDATRAIELDKKYIKGYYRRAASNMALGKFRAALRDYETVVKVKPNDKDAKMKYQECSKIVKQKAFERAIAGDEHRRSVVDSLDIESMTIEDEYSGPKLEDGKVTITFMKDLMQWYKDQKKLHRKCAYQILVQVKEVLCKLSTLVETTLKETEKITVCGDTHGQFYDLLNIFELNGLPSETNPYIFNGDFVDRGSFSVEVILTLFGFKLLYPDHFHLLRGNHETDNMNQIYGFEGEVKAKYTAQMYELFSEVFEWLPLAQCINGKVLIMHGGLFSEDGVTLDDIRKIERNRQPPDSGPMCDLLWSDPQPQNGRSVSKRGVSCQFGPDVTKAFLEENQLDYIIRSHEVKAEGYEVAHGGRCVTVFSAPNYCDQMGNKASYIHLQGSDLRPQFHQFTAVPHPNVKPMAYANTLLQLGMM | binds
5 | Alpha-aminoadipic semialdehyde dehydrogenase (mouse) (protein, UniProt Q9DBF1 27-539) AHMSTLLIHHPQYAWLQDLGLREDNEGVYNGSWGGRGEVITTYCPANNEPIARVRQASLKDYEETIGKAKKAWNIWADIPAPKRGEIVRKIGDAFREKIQLLGRLVSLEMGKILVEGIGEVQEYVDVCDYAAGLSRMIGGPTLPSERPGHALIEMWNPLGLVGIITAFNFPVAVFGWNNAIALITGNVCLWKGAPTTSLVSVAVTKIIAQVLEDNLLPGAICSLVCGGADIGTTMARDERVNLLSFTGSTQVGKEVALMVQERFGKSLLELGGNNAIIAFEDADLSLVVPSVLFAAVGTAGQRCTTVRRLFLHESIHNEVVDRLRSAYSQIRVGNPWDPNILYGPLHTKQAVSMFVRAVEEAKKQGGTVVYGGKVMDHPGNYVEPTIVTGLAHDAPIVHQETFAPILYVFKFQDEEEVFEWNNEVKQGLSSSIFTKDLGRIFRWLGPKGSDCGIVNVNIPTSGAEIGGAFGGEKHTGGGRESGSDAWKQYMRRSTCTINYSTSLPLAQGIKFQ | binds
6 | T-Complex protein 1 subunit beta (mouse) (protein, UniProt P80314 1-535) MASLSLAPVNIFKAGADEERAETARLSSFIGAIAIGDLVKSTLGPKGMDKILLSSGRDAALMVTNDGATILKNIGVDNPAAKVLVDMSRVQDDEVGDGTTSVTVLAAELLREAESLIAKKIHPQTIISGWREATKAAREALLSSAVDHGSDEARFWQDLMNIAGTTLSSKLLTHHKDHFTKLAVEAVLRLKGSGNLEAIHVIKKLGGSLADSYLDEGFLLDKKIGVNQPKRIENAKILIANTGMDTDKIKIFGSRVRVDSTAKVAEIEHAEKEKMKEKVERILKHGINCFINRQLIYNYPEQLFGAAGVMAIEHADFAGVERLALVTGGEIASTFDHPELVKLGSCKLIEEVMIGEDKLIHFSGVALGEACTIVLRGATQQILDEAERSLHDALCVLAQTVKDPRTVYGGGCSEMLMAHAVTQLANRTPGKEAVAMESFAKALRMLPTIIADNAGYDSADLVAQLRAAHSEGHITAGLDMKEGTIGDMAVLGITESFQVKRQVLLSAAEAAEVILRVDNIIKAAPRKRVPDHHPC | binds

Further lines, results first:

Row | binding | Binder
7 | binds | Branched-chain amino acid aminotransferase, cytosolic (mouse) (protein, UniProt P24288 1-386) MKDCSNGCSAPFAGERGSEEVAETFRAKDLIITPATVLKEKPDPDSLVFGATFTDHMLTVEWSSASGWEKPHIKPFGNLPIHPAASVLHYAVELFEGLKAFRGVDNKIRLFRPDLNMDRMCRSAVRTTLPMFDKEELLKCILQLLQIDQEWVPYSTSASLYIRPTFIGTEPSLGVKKPSKALLFVILSPVGPYFSSGSFTPVSLWANPKYIRAWKGGTGDCKMGGNYGASLLAQCEAVENGCQQVLWLYGKDNQITEVGTMNLFLYWINEDGEEELATPPLDGIILPGVTRQSILELAQQWGEFKVCERHLTMDDLATALEGNRVKEMFGSGTACVVCPVSDILYKGQMLHIPTMENGPKLASRILGKLTDIQYGRVESDWTIELP
8 | binds | Nucleosome assembly protein 1-like 1 (mouse) (protein, UniProt P28656 1-391) MADIDNKEQSELDQDLEDVEEVEEEETGEETKIKARQLTVQMMQNPQILAALQERLDGLVDTPTGYIESLPKVVKRRVNALKNLQVKCAQIEAKFYEEVHDLERKYAVLYQPLFDKRFEIINAIYEPTEEECEWKPDEEDEVSEELKEKAKIEDEKKDEEKEDPKGIPEFWLTVFKNVDLLSDMVQEHDEPILKHLKDIKVKFSDAGQPMSFVLEFHFEPNDYFTNEVLTKTYRMRSEPDDSDPFSFDGPEIMGCTGCQIDWKKGKNVTLKTIKKKQKHKGRGTVRTVTKTVSNDSFFNFFAPPEVPENGDLDDDAEAILAADFEIGHFLRERIIPRSVLYFTGEAIEDDDDDYDEEGEEADEEGEEEGDEENDPDYDPKKDQNPAECKQQ
9 | binds | Peroxiredoxin-1 (mouse) (protein, UniProt P35700 1-199) MSSGNAKIGYPAPNFKATAVMPDGQFKDISLSEYKGKYVVFFFYPLDFTFVCPTEIIAFSDRADEFKKLNCQVIGASVDSHFCHLAWINTPKKQGGLGPMNIPLISDPKRTIAQDYGVLKADEGISFRGLFIIDDKGILRQITINDLPVGRSVDEIIRLVQAFQFTDKHGEVCPAGWKPGSDTIKPDVNKSKEYFSKQK
10 | binds | Xaa-Pro dipeptidase (mouse) (protein, UniProt Q11136 1-493) MASTVRPSFSLGNETLKVPLALFALNRQRLCERLRKNGAVQAASAVVLQGGEEMQRYCTDTSIIFRQESFFHWAFGVVESGCYGVIDVDTGKSTLFVPRLPDSYATWMGKIHSKEYFKEKYAVDDVQYTDEIASVLTSRNPSVLLTLRGVNTDSGSVCREASFEGISKFNVNNTILHPEIVECRVFKTDMELEVLRYTNRISSEAHREVMKAVKVGMKEYEMESLFQHYCYSRGGMRHTSYTCICCSGENAAVLHYGHAGAPNDRTIKDGDICLFDMGGEYYCFASDITCSFPANGKFTEDQKAIYEAVLRSCRTVMSTMKPGVWWPDMHRLADRIHLEELARIGLLSGSVDAMLQVHLGAVFMPHGLGHFLGLDVHDVGGYPEGVERIDEPGLRSLRTARHLEPGMVLTVEPGIYFIDHLLDQALADPAQACFFNQEVLQRFRNFGGVRIEEDVVVTDSGMELLTCVPRTVEEIEACMAGCDKASVPFSGQK
11 | binds | T-Complex protein 1 subunit theta (mouse) (protein, UniProt P42932 1-548) MALHVPKAPGFAQMLKDGAKHFSGLEEAVYRNIQACKELAQTTRTAYGPNGMNKMVINRLEKLFVTNDAATILRELEVQHPAAKMIVMASHMQEQEVGDGTNFVLVFAGALLELAEELLRIGLSVSEVISGYEIACKKAHEILPELVCCSAKNLRDVDEVSSLLRTSIMSKQYGSETFLAKLIAQACVSIFPDSGNFNVDNIRVCKILGSGIYSSSVLHGMVFKKETEGDVTSVKDAKIAVYSCPFDGMITETKGTVLIKTAEELMNFSKGEENLMDAQVKAIAGTGANVIVTGGKVADIALHYANKYNIMLVRLNSKWDLRRLCKTVGATALPKLTPPVQEEMGHCDSVYLSEVGDTQVVVFKHEKEDGAISTIVLRGSTDNLMDDIERAVDDGVNTFKVLTRDKRLVPGGGATEIELAKQITSYGETCPGLEQYAIKKFAEAFEAIPRALAENSGVKANEVISKLYSVHQEGNKNVGLDIEAEVPAVKDMLEASILDTYLGKYWAIKLATNAAVTVLRVDQIIMAKPAGGPKPPSGKKDWDDDQND
